Experimental data as given in article PMC12000511, “Molecular basis for the assembly of the Vps5-Vps17 SNX-BAR proteins with Retromer” (Nature Communications, 2025).
No constants are given. Whether binding was seen depends on the method and setting. Some binding calls cover weakened binding; strength is not graded here.

Target: T1, scVps5 (S. cerevisiae) (UniProt Q92331)
T1 sequence: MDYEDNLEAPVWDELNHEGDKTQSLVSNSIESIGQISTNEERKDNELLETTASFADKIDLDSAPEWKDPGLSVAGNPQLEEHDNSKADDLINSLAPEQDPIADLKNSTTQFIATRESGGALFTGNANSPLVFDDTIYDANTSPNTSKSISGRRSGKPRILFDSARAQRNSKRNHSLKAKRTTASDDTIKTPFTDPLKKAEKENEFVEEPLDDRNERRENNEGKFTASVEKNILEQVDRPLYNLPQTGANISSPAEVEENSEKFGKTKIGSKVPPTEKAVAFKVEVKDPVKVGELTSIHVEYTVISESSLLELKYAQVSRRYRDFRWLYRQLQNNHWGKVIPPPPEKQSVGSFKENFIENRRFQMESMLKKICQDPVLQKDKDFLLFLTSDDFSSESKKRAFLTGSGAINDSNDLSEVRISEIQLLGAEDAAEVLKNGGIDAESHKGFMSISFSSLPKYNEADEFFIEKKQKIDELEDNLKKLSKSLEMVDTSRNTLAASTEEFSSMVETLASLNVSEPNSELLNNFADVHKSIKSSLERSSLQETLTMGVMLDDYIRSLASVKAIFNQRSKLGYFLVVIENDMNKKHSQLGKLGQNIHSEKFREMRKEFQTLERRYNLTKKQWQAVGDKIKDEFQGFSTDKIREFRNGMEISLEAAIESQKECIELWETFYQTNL
Assay: co-purification (TAP tag); TAP-tagged scSNX-BAR complex extracted from yeast on IgG beads, TEV cleavage, 50 mM Tris pH 8.0, 300 mM NaCl, 1 mM MgCl2

B1: scVps17 (protein, UniProt P32913 1-551)
chain: MTSAVPYDPYDDLDNNPFAEPQEEDSEPAATTTDGSSSMSEERVGTEQTAASVQDNGTANNIQNGLGEEGNATRSKTSNEHNENQQPSQPSERVILPERSDEKKKYTLLAKVTGLERFGSATGKKENPTIIFDCSTNLPTFRKQQYKNVKKSYEEFHQLFKYLNVAIQESFVPTLPSAYTTFGINSEEDRMKVTRNFQLWFNRLSQDPLIIRNEEVAFFIESDFNTYTPINKSKSLASGLKRKTLKQLAPPYDEITELAEFRPLVKSIYVVSQSLQEKLLRVSRNRKMMVQEENAFGQDFVNLDEHNKLYRRYGKILTAVGDIDSIIATMDMATLYDGLEWIVRDAYAVKEALTNRHFIMRNLVQAQQNSKAKQEQARRFRSRRDINPMKIDEALRQLKAAAKNEQVLTLKLQRITSNMIIERKQWISWYEEWIRSSIKEFTLRKIEYERKKLTLLERVRSDIRKADENGGLSRLGRHAVSNNNSDTSQTLKGDSWTGESNRKSQIPINKIAHTEFDDELFTEDDGYNSQDSDTTSLNARHAASLLGMSTK
- binding: binds
